This note sets out measurements from paper PMC12254266.

Amino acid sequences for entries named in this document (tags omitted).
UniProt O14842, whole entry: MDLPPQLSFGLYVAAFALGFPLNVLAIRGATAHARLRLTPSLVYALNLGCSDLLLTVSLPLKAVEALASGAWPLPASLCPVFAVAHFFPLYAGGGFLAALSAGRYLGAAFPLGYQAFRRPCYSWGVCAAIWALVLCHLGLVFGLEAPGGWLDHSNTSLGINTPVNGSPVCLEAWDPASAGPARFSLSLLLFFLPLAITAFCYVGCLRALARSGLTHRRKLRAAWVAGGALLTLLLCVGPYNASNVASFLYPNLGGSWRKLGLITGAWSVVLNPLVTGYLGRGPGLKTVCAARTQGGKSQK

Structures are written as SMILES. A number of entries come with more than one value. The other results are left out here. An entry can have further records. Values given together do not match, cause unknown; some may be repeats, others may stem from another dose, organism or construct than stated.

One experiment deals with Nluc-FFA1 (Homo sapiens, UniProt O14842). Put plainly: NanoBRET binding. Particulars: for Specific BRET (540/450) Ratio: Nluc-FFA1, tested form: TFA.
In experiment [1] the target is T1, FFA1-Nluc (Homo sapiens, UniProt O14842). As to the kind of experiment: Ca2+ mobilisation antagonism of FFA1 agonists. It counts as cell-based.
Experiment [2] addresses T1, FFA1-Nluc. As to the kind of experiment: NanoBRET binding. The conditions noted are these: tested form: TFA. Background: Bioluminescence resonance energy transfer reports proximity on the nanometre scale.
The target of experiment [3] is T1, FFA1-Nluc. Put plainly: DISCo-BRET. It counts as binding. Particulars: tested form: TFA; for Specific BRET (690/450): Sup Fig 3Ci.

With `COc1ccc(CCCC(C)(C)C)c(N2CCC(COc3cccc(C(CC(=O)O)C4CC4)c3)CC2)c1` (stereo not shown), the “Specific BRET (540/450)%” value on Nluc-FFA1 (Figure 4Cii, log[Ligand] -6, technical duplicates) is 20.10, 10.18, 5.96, 18.84, 19.05, 15.45, 6.66, 7.44%. For the same molecule, the “Ca2% Response (%)” value at FFA1-Nluc [1] (log[T360] -5, with PPTQ (concentration not given), Sup Figure 6D) is 87.22%, 94.37%, 28.64%; on FFA1-Nluc [1] (log[T360] -6, column head 31.6 μM (antagonist not given), Sup Figure 6F), 54.99, 50.24, 30.85, 31.84, 58.11, 86.46%; on FFA1-Nluc [1] (log[T360] -6, with 3.16 μM GW1100) it was 12.50, 76.32, 68.55, 75.60, 77.63%; at FFA1-Nluc [1] (log[T360] -6, with PPTQ (concentration not given), Sup Figure 6D), 54.62, 35.97, 86.96, 78.41%; at FFA1-Nluc [1] (log[T360] -6.5, 10 μΜ (antagonist not given), Sup Figure 6F) it was 20.59, 14.69, 14.96, 14.43, 47.18, 63.06%; at FFA1-Nluc [1] (log[T360] -8, Veh (no antagonist), Sup Figure 6F) it was 7.93, 10.40, 15.51, 4.01, 17.19, 3.30%.
As to `CCCN1C(=O)c2ccccc2[C@@H](C(=O)O)[C@@H]1c1ccc(OCc2cccc(-c3ccc(OCCCS(C)(=O)=O)cc3C)c2)cc1` (relative stereo), the “Ca2% Response (%)” value on FFA1-Nluc [1] (response to log[T360] -7 in presence of TUG-2745, Sup Fig 6H) is reported as 53.43, 42.62, 36.36, 24.38, 43.00, 44.59%.
Regarding `COc1ccc(C(=O)N(CC(C)(C)CNc2ccc([N+](=O)[O-])c3nonc23)c2cccc(C)n2)c(N2CCC(COc3cccc(C(CC(=O)O)C4CC4)c3)CC2)c1` (racemic), the “Specific BRET (540/450) Ratio” value on Nluc-FFA1 ([TUG-2597] 31.6 nM) is listed as 0.0094, 0.0011, 0.0099, 0.0041, 0.0032, 0.0049; on Nluc-FFA1 ([TUG-2597] 316 nM) it was 0.0438, 0.0191, 0.0234, 0.0402, 0.0415, 0.0259; at FFA1-Nluc [2] ([TUG-2597] 100 nM), 0.0022, 0.0194, 0.0100, 0.0027, 0.0079, 0.0078; at FFA1-Nluc [2] ([TUG-2597] 1000 nM) it was 0.0440, 0.0459, 0.0330, 0.0218, 0.0442, 0.0405. Further, the “Specific BRET (690/450)” value is 0.0066, 0.0093, 0.0103, 0.0068, 0.01515, 0.01805, 0.016, 0.0148 at FFA1-Nluc [3] (TUG-2591 0 nM, TUG-2597 + TUG-2193) and 0.0038, 0.004, 0.0066, 0.0023, 0.01995, 0.01355, 0.0076, 0.0085 at FFA1-Nluc [3] (TUG-2591 0 nM, TUG-2597 alone). Besides, the “Specific BRET (540/450)” value is on record as 0.1401, 0.1383, 0.1336, 0.135, 0.2328, 0.2401, 0.302, 0.2913 on FFA1-Nluc [3] (Sup Fig 3Cii, TUG-2591 0 nM, TUG-2597 + TUG-905); 0.01415, 0.01255, 0.0231, 0.0242, 0.0189, 0.0081, 0.04775, 0.04375 on FFA1-Nluc [3] (Sup Fig 3Cii, TUG-2591 0 nM, TUG-2597 + TUG-2193); 0.09455, 0.08025, 0.0915, 0.0776, 0.1779, 0.1401, 0.1888, 0.1787 on FFA1-Nluc [3] (Sup Fig 3Cii, TUG-2591 0 nM, TUG-2597 alone); 0.04077, 0.02337, 0.007275, 0.06017, 0.06628, 0.03918, 0.03148 on FFA1-Nluc [3] (TUG-2597 + TUG-2193, 0 nM TUG-2591); 0.1903, 0.09917, 0.1025, 0.1812, 0.1709, 0.2288 at FFA1-Nluc [3] (TUG-2597 alone, 0 nM TUG-2591).
